Data from publication PMC12462753.
No constants are given. Whether binding was seen depends on the method and setting. Binding seen in cells or lysates may run through a third protein. Some entries that bind do so weakly or less than the wild type. Sequences can lack the tags named with a protein.

Chains of the proteins cited; added tags and fusions are not shown. Lines headed by an entry give the natural chain unless they say otherwise; changes in a name come on top.
UniProt Q9UBN7: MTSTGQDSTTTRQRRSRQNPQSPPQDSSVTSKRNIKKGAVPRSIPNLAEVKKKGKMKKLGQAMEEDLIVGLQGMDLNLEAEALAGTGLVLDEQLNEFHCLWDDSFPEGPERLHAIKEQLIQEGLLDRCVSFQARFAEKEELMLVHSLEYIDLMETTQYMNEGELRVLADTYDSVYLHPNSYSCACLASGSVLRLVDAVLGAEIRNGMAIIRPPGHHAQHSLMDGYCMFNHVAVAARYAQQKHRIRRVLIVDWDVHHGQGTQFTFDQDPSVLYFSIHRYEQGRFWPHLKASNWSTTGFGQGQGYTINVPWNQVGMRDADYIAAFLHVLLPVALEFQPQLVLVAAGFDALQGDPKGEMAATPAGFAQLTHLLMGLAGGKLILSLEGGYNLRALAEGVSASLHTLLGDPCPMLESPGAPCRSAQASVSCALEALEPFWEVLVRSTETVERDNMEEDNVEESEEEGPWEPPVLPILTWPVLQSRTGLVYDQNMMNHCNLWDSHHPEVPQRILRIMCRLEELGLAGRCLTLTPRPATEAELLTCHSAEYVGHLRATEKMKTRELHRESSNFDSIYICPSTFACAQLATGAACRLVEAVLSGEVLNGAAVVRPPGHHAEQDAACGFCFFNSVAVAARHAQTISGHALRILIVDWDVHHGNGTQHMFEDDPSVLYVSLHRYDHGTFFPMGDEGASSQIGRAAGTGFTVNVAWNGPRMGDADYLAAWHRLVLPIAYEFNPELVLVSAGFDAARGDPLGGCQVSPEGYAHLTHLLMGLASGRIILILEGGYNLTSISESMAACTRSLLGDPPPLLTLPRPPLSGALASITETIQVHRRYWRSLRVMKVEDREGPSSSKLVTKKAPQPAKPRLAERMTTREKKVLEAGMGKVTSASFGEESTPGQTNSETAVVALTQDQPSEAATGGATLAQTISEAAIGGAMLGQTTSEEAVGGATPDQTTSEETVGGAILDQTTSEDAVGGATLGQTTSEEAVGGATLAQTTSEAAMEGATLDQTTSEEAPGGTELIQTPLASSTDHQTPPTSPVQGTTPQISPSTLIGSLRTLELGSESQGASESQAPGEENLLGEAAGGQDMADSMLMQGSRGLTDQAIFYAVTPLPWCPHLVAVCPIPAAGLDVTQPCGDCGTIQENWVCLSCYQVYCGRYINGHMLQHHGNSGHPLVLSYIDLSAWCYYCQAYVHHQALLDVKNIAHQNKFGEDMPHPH
UniProt P19838: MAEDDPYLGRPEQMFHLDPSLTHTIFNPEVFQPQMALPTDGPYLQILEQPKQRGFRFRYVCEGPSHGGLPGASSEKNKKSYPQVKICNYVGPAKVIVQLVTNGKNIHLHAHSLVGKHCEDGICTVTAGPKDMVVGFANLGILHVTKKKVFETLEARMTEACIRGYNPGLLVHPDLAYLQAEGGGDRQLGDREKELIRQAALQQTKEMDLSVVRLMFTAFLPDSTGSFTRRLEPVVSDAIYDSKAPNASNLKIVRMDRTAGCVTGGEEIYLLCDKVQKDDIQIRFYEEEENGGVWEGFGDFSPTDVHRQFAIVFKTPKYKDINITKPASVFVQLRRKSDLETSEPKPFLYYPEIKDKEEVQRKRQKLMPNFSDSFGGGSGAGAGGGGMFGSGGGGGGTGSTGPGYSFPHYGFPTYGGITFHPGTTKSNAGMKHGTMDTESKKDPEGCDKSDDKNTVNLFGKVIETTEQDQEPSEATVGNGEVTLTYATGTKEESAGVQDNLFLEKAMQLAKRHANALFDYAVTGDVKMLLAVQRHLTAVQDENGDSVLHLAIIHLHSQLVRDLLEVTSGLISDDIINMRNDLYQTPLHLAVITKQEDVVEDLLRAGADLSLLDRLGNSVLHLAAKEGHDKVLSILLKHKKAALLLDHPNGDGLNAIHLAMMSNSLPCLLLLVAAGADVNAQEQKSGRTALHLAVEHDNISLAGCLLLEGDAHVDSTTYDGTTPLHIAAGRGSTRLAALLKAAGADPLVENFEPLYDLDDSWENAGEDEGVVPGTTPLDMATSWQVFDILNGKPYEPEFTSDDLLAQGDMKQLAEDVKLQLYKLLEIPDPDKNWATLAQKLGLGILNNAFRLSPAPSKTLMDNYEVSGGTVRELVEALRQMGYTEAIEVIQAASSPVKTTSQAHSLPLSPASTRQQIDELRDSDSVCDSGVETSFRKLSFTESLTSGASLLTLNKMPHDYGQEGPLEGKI

B1: FLAG-tagged NF-κB2 p100 (protein, UniProt Q00653-1 1-900)
chain: MESCYNPGLDGIIEYDDFKLNSSIVEPKEPAPETADGPYLVIVEQPKQRGFRFRYGCEGPSHGGLPGASSEKGRKTYPTVKICNYEGPAKIEVDLVTHSDPPRAHAHSLVGKQCSELGICAVSVGPKDMTAQFNNLGVLHVTKKNMMGTMIQKLQRQRLRSRPQGLTEAEQRELEQEAKELKKVMDLSIVRLRFSAFLRASDGSFSLPLKPVISQPIHDSKSPGASNLKISRMDKTAGSVRGGDEVYLLCDKVQKDDIEVRFYEDDENGWQAFGDFSPTDVHKQYAIVFRTPPYHKMKIERPVTVFLQLKRKRGGDVSDSKQFTYYPLVEDKEEVQRKRRKALPTFSQPFGGGSHMGGGSGGAAGGYGGAGGGGSLGFFPSSLAYSPYQSGAGPMGCYPGGGGGAQMAATVPSRDSGEEAAEPSAPSRTPQCEPQAPEMLQRAREYNARLFGLAQRSARALLDYGVTADARALLAGQRHLLTAQDENGDTPLHLAIIHGQTSVIEQIVYVIHHAQDLGVVNLTNHLHQTPLHLAVITGQTSVVSFLLRVGADPALLDRHGDSAMHLALRAGAGAPELLRALLQSGAPAVPQLLHMPDFEGLYPVHLAVRARSPECLDLLVDSGAEVEATERQGGRTALHLATEMEELGLVTHLVTKLRANVNARTFAGNTPLHLAAGLGYPTLTRLLLKAGADIHAENEEPLCPLPSPPTSDSDSDSEGPEKDTRSSFRGHTPLDLTCSTKVKTLLLNAAQNTMEPPLTPPSPAGPGLSLGDTALQNLEQLLDGPEAQGSWAELAERLGLRSLVDTYRQTTSPSGSLLRSYELAGGDLAGLLEALSDMGLEEGVRLLRGPETRDKLPSTAEVKEDSAYGSQSVEQEAEKLGPPPEPPGGLCHGHPQPQVH
B2: FLAG-tagged NF-κB2 p52 (protein, UniProt Q00653 1-454)
chain: MESCYNPGLDGIIEYDDFKLNSSIVEPKEPAPETADGPYLVIVEQPKQRGFRFRYGCEGPSHGGLPGASSEKGRKTYPTVKICNYEGPAKIEVDLVTHSDPPRAHAHSLVGKQCSELGICAVSVGPKDMTAQFNNLGVLHVTKKNMMGTMIQKLQRQRLRSRPQGLTEAEQRELEQEAKELKKVMDLSIVRLRFSAFLRASDGSFSLPLKPVISQPIHDSKSPGASNLKISRMDKTAGSVRGGDEVYLLCDKVQKDDIEVRFYEDDENGWQAFGDFSPTDVHKQYAIVFRTPPYHKMKIERPVTVFLQLKRKRGGDVSDSKQFTYYPLVEDKEEVQRKRRKALPTFSQPFGGGSHMGGGSGGAAGGYGGAGGGGSLGFFPSSLAYSPYQSGAGPMGCYPGGGGGAQMAATVPSRDSGEEAAEPSAPSRTPQCEPQAPEMLQRAREYNARLFGLA

Molecular target: STREP-tagged HDAC6 (UniProt Q9UBN7)
Assay: pull-down; FLAG-tagged NF-κB proteins expressed in HEK cells in presence or absence of STREP-tagged HDAC6; HDAC6 pulled down on Strep-Tactin beads; western blot

Molecule | binding
FLAG-tagged NF-κB1 p50 (from UniProt P19838 1-433) | binds
FLAG-tagged NF-κB1 p105 (from UniProt P19838 1-968) | binds
B1 | binds
B2 | binds
